Source: the supplement of paper PMC12819154, “High-throughput peptide-centric local stability assay extends protein–ligand identification to membrane proteins, tissues and bacteria” (Nature Structural & Molecular Biology, 2025)
Some of the results follow. Small differences around the control level are noise.

Sequences of proteins named here, by UniProt entry; tags and fusion partners are left off. A change or cut given only in a name is not applied to a line headed by its entry.
UniProt Q8BGA5: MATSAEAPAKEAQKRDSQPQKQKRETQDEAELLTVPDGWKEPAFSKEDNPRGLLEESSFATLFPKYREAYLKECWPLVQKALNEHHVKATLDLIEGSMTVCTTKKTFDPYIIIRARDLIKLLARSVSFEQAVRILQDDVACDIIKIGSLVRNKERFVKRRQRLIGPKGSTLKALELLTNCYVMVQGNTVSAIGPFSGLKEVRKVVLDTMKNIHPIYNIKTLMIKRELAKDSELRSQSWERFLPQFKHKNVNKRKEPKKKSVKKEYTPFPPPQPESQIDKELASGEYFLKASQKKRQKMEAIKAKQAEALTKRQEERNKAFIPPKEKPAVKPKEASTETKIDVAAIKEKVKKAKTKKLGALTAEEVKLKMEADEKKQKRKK
UniProt Q80XQ2: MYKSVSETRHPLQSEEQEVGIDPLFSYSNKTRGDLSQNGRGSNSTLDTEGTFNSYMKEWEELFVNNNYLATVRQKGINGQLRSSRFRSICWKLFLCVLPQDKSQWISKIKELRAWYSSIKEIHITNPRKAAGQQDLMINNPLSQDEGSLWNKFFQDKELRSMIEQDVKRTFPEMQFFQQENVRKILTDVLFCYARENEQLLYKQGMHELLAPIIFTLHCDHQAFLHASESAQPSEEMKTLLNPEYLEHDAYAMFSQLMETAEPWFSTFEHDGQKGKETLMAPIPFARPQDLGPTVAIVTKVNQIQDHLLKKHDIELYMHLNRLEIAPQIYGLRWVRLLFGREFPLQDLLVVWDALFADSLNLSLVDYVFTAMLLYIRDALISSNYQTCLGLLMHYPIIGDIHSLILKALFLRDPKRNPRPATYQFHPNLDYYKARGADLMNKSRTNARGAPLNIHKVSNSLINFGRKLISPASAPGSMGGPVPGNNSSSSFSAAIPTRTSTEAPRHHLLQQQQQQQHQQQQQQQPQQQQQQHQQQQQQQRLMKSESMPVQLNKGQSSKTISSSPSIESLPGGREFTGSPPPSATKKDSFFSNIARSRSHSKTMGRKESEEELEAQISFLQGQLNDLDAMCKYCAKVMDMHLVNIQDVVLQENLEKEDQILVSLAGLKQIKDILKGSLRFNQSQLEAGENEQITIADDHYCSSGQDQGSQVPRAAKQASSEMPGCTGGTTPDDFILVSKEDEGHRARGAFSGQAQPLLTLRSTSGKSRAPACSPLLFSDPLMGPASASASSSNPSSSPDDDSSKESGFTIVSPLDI
UniProt Q8BH02: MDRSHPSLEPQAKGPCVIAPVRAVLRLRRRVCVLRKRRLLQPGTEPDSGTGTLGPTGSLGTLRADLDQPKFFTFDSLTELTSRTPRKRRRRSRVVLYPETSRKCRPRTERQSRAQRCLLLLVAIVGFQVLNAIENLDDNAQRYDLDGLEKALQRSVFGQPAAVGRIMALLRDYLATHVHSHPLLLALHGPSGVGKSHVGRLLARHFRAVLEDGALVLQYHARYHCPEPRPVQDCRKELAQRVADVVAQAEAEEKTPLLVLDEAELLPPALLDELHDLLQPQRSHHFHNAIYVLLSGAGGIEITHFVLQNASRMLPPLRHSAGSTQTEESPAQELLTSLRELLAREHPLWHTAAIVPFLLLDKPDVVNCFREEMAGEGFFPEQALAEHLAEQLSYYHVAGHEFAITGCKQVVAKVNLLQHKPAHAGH
UniProt Q8BG81: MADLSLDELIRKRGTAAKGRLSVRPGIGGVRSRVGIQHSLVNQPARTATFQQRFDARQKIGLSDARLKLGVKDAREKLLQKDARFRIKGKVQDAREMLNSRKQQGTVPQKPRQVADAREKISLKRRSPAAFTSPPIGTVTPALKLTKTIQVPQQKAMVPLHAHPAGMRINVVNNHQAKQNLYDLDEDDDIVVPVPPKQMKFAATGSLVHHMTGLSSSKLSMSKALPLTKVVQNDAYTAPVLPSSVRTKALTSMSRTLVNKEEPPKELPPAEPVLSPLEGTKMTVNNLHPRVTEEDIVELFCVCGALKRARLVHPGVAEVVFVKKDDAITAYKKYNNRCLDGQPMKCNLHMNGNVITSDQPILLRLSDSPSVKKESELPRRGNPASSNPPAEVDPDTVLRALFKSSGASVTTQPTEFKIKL
UniProt Q8BFW7: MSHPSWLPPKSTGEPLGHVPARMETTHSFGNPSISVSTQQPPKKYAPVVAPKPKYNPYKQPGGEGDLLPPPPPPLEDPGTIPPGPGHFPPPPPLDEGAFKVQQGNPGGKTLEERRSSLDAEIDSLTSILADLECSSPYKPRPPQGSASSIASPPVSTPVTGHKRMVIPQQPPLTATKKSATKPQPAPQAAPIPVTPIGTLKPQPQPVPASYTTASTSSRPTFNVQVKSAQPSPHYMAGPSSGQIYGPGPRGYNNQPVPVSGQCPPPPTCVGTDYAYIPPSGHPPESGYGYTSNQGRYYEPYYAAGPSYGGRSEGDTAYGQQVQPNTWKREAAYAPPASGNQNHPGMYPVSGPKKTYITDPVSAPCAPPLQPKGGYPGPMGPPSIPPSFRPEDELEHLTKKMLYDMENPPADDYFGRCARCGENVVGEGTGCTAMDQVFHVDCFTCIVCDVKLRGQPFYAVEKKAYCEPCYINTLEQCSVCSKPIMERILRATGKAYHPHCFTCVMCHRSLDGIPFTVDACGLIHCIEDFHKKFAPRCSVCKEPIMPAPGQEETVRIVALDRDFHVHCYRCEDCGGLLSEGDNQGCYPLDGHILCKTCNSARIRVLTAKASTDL
UniProt Q8BH58: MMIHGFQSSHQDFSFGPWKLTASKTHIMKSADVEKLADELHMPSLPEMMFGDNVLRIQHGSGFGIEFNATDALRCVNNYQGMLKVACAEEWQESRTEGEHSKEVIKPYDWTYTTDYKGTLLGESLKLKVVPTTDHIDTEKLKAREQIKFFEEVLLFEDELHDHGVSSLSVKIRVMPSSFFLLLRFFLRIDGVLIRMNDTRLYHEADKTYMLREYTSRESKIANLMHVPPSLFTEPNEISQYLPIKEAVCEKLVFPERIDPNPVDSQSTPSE
UniProt Q8BH50: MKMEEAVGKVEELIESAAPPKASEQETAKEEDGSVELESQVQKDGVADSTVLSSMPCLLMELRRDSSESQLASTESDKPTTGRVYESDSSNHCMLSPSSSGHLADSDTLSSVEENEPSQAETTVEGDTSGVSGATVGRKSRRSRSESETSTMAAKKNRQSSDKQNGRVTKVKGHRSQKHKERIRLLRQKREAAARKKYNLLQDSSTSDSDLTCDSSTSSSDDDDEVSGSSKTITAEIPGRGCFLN
UniProt Q8BHA0, whole entry: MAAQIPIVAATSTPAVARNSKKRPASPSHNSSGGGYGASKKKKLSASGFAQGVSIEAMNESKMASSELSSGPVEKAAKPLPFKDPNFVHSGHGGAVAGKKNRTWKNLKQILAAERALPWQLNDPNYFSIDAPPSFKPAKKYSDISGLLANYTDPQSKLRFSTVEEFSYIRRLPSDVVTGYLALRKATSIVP
UniProt Q80Y19: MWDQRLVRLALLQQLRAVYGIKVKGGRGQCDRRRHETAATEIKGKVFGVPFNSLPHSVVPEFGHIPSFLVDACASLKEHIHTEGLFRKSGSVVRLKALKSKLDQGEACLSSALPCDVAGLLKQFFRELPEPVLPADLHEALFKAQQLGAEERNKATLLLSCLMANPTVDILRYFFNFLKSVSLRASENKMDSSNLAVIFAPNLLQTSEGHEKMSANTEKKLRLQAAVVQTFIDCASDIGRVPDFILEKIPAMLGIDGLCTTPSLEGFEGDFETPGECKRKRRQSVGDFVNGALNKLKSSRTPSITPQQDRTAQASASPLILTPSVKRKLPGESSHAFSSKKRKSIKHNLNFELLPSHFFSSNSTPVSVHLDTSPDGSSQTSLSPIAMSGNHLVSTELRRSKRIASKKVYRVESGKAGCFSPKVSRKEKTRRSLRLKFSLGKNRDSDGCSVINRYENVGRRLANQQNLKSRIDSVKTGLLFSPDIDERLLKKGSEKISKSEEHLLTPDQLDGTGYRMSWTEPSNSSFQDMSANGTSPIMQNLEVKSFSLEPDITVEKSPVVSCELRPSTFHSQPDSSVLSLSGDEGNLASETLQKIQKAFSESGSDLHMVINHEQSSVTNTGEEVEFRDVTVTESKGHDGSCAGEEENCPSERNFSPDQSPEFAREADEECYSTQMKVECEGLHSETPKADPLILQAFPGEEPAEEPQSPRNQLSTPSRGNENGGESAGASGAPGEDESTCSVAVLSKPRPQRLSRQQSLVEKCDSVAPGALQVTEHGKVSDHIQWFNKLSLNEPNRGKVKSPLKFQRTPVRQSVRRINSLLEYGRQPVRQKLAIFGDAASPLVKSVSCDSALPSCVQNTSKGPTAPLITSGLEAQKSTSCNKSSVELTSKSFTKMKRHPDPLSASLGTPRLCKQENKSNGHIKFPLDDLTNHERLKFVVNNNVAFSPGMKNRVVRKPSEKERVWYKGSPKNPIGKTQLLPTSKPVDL
UniProt Q8BGT7: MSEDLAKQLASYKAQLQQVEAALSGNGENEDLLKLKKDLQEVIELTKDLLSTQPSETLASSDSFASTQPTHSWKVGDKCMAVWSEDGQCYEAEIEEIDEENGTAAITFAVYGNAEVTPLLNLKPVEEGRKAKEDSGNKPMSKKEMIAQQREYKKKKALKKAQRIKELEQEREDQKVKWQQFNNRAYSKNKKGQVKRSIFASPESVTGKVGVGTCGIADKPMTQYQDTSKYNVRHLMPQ
UniProt Q8BGF7: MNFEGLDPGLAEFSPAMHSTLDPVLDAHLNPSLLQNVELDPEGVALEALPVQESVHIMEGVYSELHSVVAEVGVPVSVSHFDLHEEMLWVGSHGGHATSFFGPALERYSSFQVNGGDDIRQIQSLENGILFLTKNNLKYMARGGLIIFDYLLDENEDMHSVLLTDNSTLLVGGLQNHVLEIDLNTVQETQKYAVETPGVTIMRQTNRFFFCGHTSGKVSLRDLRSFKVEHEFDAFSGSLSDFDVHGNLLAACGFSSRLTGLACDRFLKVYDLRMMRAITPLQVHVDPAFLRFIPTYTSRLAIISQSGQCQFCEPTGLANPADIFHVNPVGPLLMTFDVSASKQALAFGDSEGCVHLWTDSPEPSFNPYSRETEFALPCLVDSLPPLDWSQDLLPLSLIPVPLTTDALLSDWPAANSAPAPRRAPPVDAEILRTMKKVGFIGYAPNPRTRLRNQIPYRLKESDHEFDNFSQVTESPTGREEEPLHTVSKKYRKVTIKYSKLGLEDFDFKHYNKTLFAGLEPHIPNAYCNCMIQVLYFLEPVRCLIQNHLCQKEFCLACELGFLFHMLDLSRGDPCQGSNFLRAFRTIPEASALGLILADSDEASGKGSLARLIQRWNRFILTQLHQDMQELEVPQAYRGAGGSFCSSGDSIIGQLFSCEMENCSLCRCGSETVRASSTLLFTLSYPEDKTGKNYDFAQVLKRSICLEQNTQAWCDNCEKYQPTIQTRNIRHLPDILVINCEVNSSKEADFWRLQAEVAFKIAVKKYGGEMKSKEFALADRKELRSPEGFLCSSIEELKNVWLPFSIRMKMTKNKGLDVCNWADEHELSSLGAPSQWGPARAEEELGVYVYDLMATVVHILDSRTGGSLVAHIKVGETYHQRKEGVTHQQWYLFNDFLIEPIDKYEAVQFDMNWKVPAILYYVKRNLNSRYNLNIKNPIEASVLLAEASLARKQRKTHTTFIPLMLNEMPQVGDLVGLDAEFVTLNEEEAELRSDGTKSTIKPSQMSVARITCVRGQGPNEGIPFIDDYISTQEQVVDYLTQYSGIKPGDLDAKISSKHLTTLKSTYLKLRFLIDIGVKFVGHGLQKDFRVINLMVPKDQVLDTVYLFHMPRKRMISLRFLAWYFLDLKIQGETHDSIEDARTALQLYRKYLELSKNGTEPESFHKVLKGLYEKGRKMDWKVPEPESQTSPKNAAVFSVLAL

Compound: CN[C@@H]1C[C@H]2O[C@@](C)([C@@H]1OC)n1c3ccccc3c3c4c(c5c6ccccc6n2c5c31)C(=O)NC4 [staurosporine]
Assay: log2 fold change of tryptic peptide abundance, ligand vs vehicle (limited proteolysis) (log2 ratio); higher = more trypsin-susceptible (destabilized)
Conditions: ligand concentration: 20 uM; sample: mouse liver crude lysate; replicate design: treated separately

| Target | log2 fold change |
| --- | --- |
| UniProt Q8BGA5 (peptide sequence: LKMEADEK, peptide start residue: 367) | -0.379 |
| UniProt Q80XQ2 (peptide sequence: PATYQFHPNLDYYK, peptide start residue: 420) | 0.249 |
| UniProt Q8BH02 (peptide sequence: GPCVIAPVR, peptide start residue: 14) | 0.118 |
| UniProt Q8BG81 (peptide sequence: CLDGQPMK, peptide start residue: 338) | 0.425 |
| UniProt Q8BFW7 (peptide sequence: LRGQPFYAVEKK, peptide start residue: 452) | -0.221 |
| UniProt Q8BH58 (peptide sequence: LKVVPTTDHIDTEKLK, peptide start residue: 127) | -0.153 |
| UniProt Q8BH50 (peptide sequence: DSSESQLASTESDKPTTGR, peptide start residue: 65) | -0.203 |
| UniProt Q8BHA0 (peptide sequence: MASSELSSGPVEK, peptide start residue: 63) | 0.0158 |
| UniProt Q80Y19 (peptide sequence: LALLQQLR, peptide start residue: 9) | 0.268 |
| UniProt Q8BGT7 (peptide sequence: DLQEVIELTK, peptide start residue: 38) | 0.234 |
| UniProt Q8BGF7 (peptide sequence: RAPPVDAEILR, peptide start residue: 422) | 0.665 |
